Measured values from patent US11357800B2, “Compositions for the treatment of neuropathic pain and sensitization of tumors to chemotherapies” (Henry Ford Health System, priority 2016, dated 2022).
At least one compound was matched to its structure with a doubt left.

Legend:
[1] = system: human glioblastoma cell line H66; experiment: Glioblastoma cell killing by TMZ with MSC-derived exosomes; format: cell-based; details: H66 cells, TMZ 50 μM
[2] = in vivo; cited from earlier work

Structure (SMILES) | tumor cell killing [1] | antineuropathic effect on oxaliplatin-induced behavioral alterations [2]
Cn1nnc2c(C(N)=O)ncn2c1=O [TMZ, temozolomide] | killed tumor cells | –
COc1cc(C2Oc3cc([C@H]4Oc5cc(O)cc(O)c5C(=O)[C@@H]4O)ccc3OC2CO)ccc1O (some centres unmarked) [silibinin] | – | about 50%
